# According to US8604021B2, “Substituted arylamine compounds and methods of treatment” (priority 2005, dated 2013):
# Some entries share one result that the patent states for a list of compounds.
# Experiment: Reduction of food intake and body weight in ob/ob mice
# Format: in vivo
# Details: 7 days
structure (smiles),measurement,setting,value
"COc1cc(OC)cc(C(C)Nc2cc(N3CCNCC3)ccc2C(=O)C(F)(F)F)c1.Cl (stereo not shown) [Compound C, 1-(2-(1-(3,5-Dimethoxyphenyl)ethylamino)-4-(piperazin-1-yl)phenyl)-2,2,2-trifluoroethanone hydrochloride]",reduction in body weight,30 mg/kg qd i.p,10-15%
same,reduction in food intake,30 mg/kg qd i.p,60-70%
"CC(Nc1cc(N2CCNCC2)ccc1S(C)(=O)=O)c1ccccc1.Cl (stereo not shown) [Compound B, 2-(Methylsulfonyl)-N-(1-phenylethyl)-5-(piperazin-1-yl)benzenamine hydrochloride]",reduction in body weight,30 mg/kg bid i.p,10-15%
same,reduction in food intake,30 mg/kg bid i.p,60-70%
